Article PMC12778052 (Science Advances, 2026)

Experiment: general procedure: Fmoc solid-phase peptide synthesis; Rink Amide resin; Oxyma, N,N'-diisopropyl...
Conditions: whole synthesis, scale 0.1 mmol

NH2-PEG12-(Cys-Pro-Nal-Asp-Cys-Met-hArg-dAsp-Trp-Ser-Thr-Pro-Hyp-Trp-Cys)-TATA–based cyclization
isolated mass: 30 mg | isolated yield: 25% yield
